{"source": "PubChem BioAssay (NCATS)", "key": {"[1]": {"molecular_target": "Retinaldehyde dehydrogenase 3 (Homo sapiens) (UniProt P47895)", "experiment": "qHTS for Inhibitors of the Aldehyde Dehydrogenase Family (ALDH1A3) Validation screen (AID 2061312); note: nearly all actives have a fitted effect of over 45% in size", "details": "ALDH1A3 enzyme inhibition qHTS validation, fluorescence; series mostly up to 84.7 µM"}, "[2]": {"experiment": "BET inhibitor-based combinations targeting novel dependencies in MECOM-rearranged (r) AML: SET-2 cell line (AID 2202231); note: nearly all actives have a fitted effect of over 35% in size", "details": "SET-2 AML cells viability, CellTiter-Glo luminescence, 48 h; viability: active compounds read low, concentration not given here", "how_it_was_run": "(§1)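 AML cell lines seeded at 500 cells/well, treated with 11-point dose curves for 48 h. Viability by CellTiter-Glo luminescence, normalised to DMSO and empty wells; activity expressed as AUC and per-cell-line Z-transformed AUC.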"}, "[3]": {"experiment": "BET inhibitor-based combinations targeting novel dependencies in MECOM-rearranged (r) AML: HNT-34 cell line (AID 2202234)", "how_it_was_run": "(§2)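 Cells at 500/well were exposed for 48 hr to MIPE v5.0 drugs as 11-point dose curves. Viability was read by CellTiter-Glo luminescence and normalized to DMSO and empty-well controls. Activity was expressed as AUC and per-cell-line Z-AUC.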"}, "[4]": {"experiment": "BET inhibitor-based combinations targeting novel dependencies in MECOM-rearranged (r) AML: AML-191 cell line (AID 2202236)", "how_it_was_run": "as §1"}, "[5]": {"experiment": "BET inhibitor-based combinations targeting novel dependencies in MECOM-rearranged (r) AML: AML-194 cell line (AID 2202237)", "how_it_was_run": "as §1"}, "[6]": {"experiment": "BET inhibitor-based combinations targeting novel dependencies in MECOM-rearranged (r) AML: OCI-AML3 cell line (AID 2202232)", "details": "CellTiter-Glo luminescence, 48 h; Potency: OCI-AML3 viability; viability (% of control): at 46 µM (top of the series)", "how_it_was_run": "as §1"}, "[7]": {"experiment": "BET inhibitor-based combinations targeting novel dependencies in MECOM-rearranged (r) AML: MV-4-11 cell line (AID 2202233)", "details": "MV-4-11 AML viability, CellTiter-Glo luminescence, 48 h", "how_it_was_run": "as §2"}, "[8]": {"experiment": "BET inhibitor-based combinations targeting novel dependencies in MECOM-rearranged (r) AML: UCSD-AML1 cell line (AID 2202235)", "details": "UCSD-AML1 AML cells viability, CellTiter-Glo, 48 h; viability (% of control): at 46 µM (top of the series)", "how_it_was_run": "as §2"}}, "note": "The shares of active, inactive and inconclusive entries below differ from those in the screen. Where the call is inconclusive, the potency comes from a doubtful curve fit. The source made the active and inactive calls. Calls come from the whole dose curve; as a rule, active = well fitted curve in the direction sought with a large enough effect; inconclusive = small, poorly fitted or top-dose-only effect, or another doubt; inactive = no such curve, though single readings can be large; an effect the other way counts as inactive or inconclusive. Potency is the fitted concentration of half-maximal effect."}
{"smiles": "COc1cc2c(c(OC)c1OC)-c1ccc(OC)c(=O)cc1[C@@H](NC(C)=O)CC2", "values": [{"measurement": "Potency", "setting": "[1]", "result": "inconclusive: 20 µM [inhibitor, single point]"}, {"measurement": "Potency", "setting": "[2]", "result": "active: 0.0661 µM"}, {"measurement": "Potency", "setting": "[3]", "result": "inconclusive: 0.0295 µM [inhibitor, full curve]"}, {"measurement": "Potency", "setting": "[4]", "result": "active: 0.0332 µM"}, {"measurement": "Potency", "setting": "[5]", "result": "inconclusive: 0.0372 µM [inhibitor, full curve, poor fit]"}]}
{"smiles": "O=c1[nH]nc(OCCCc2ccc(Cl)cc2)c(NCc2cccnc2)c1Br", "values": [{"measurement": "Potency", "setting": "[1]", "result": "inconclusive: 28.2 µM [inhibitor, full curve, poor fit]"}, {"measurement": "Potency", "setting": "[2]", "result": "inconclusive: 13.2 µM [inhibitor, partial curve]"}, {"measurement": "Potency", "setting": "[6]", "result": "inconclusive: 13.2 µM [inhibitor, partial curve]"}, {"measurement": "Potency", "setting": "[7]", "result": "inconclusive: 14.8 µM [inhibitor, partial curve, poor fit]"}, {"measurement": "Potency", "setting": "[3]", "result": "inconclusive: 18.6 µM [inhibitor, partial curve]"}, {"measurement": "Potency", "setting": "[8]", "result": "inconclusive: 9.34 µM [inhibitor, single point]"}, {"measurement": "Potency", "setting": "[5]", "result": "active: 20.9 µM"}]}
{"smiles": "Cc1cncc2cccc(S(=O)(=O)N3CCCN(C(=O)CN)C[C@@H]3C)c12", "values": [{"measurement": "Potency", "setting": "[1]", "result": "inconclusive: 31.6 µM [inhibitor, partial curve]"}, {"measurement": "Potency", "setting": "[6]", "result": "inconclusive: 2.09 µM [inhibitor, full curve, poor fit]"}, {"measurement": "Potency", "setting": "[7]", "result": "inconclusive: 2.95 µM [inhibitor, full curve]"}, {"measurement": "Potency", "setting": "[3]", "result": "inconclusive: 1.32 µM [inhibitor, full curve]"}, {"measurement": "Potency", "setting": "[8]", "result": "active: 4.17 µM"}, {"measurement": "Potency", "setting": "[4]", "result": "inconclusive: 13.2 µM [inhibitor, partial curve]"}, {"measurement": "Potency", "setting": "[5]", "result": "inconclusive: 4.68 µM [inhibitor, partial curve]"}]}
